Test [1] has as its target T1, KMP-11 (yeast two-hybrid fusion) (Trypanosoma brucei) (UniProt P69301).
T1 sequence: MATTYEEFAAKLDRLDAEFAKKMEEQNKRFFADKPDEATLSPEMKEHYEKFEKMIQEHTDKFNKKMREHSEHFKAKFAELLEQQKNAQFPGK
The test can be described thus: two-hybrid; Gal4 system; prey in pGADT7 (AH109), bait in pGBKT7 (Y187), mated, spotted on SD-Leu-Trp and SD-His-Leu-Trp plates (Fig. 2B).

Protein sequences, listed by entry. Tags and fused reporters are not part of them. Lines headed by an entry give the natural chain unless they say otherwise; changes in a name come on top.
UniProt Q586F4: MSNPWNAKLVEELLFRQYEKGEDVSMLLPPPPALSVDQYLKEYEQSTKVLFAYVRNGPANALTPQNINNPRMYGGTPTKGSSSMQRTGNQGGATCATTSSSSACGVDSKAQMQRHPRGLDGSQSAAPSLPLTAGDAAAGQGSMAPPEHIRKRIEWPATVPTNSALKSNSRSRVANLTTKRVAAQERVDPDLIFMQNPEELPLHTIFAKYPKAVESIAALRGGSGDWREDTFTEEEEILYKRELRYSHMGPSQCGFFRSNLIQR
UniProt Q381V1: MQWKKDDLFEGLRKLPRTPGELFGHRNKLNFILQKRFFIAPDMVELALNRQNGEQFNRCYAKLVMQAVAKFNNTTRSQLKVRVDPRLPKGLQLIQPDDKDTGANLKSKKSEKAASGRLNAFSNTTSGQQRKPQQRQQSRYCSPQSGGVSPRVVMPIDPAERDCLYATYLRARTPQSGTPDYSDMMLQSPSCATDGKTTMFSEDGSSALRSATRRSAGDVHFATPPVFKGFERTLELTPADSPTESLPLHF
UniProt Q57ZI5: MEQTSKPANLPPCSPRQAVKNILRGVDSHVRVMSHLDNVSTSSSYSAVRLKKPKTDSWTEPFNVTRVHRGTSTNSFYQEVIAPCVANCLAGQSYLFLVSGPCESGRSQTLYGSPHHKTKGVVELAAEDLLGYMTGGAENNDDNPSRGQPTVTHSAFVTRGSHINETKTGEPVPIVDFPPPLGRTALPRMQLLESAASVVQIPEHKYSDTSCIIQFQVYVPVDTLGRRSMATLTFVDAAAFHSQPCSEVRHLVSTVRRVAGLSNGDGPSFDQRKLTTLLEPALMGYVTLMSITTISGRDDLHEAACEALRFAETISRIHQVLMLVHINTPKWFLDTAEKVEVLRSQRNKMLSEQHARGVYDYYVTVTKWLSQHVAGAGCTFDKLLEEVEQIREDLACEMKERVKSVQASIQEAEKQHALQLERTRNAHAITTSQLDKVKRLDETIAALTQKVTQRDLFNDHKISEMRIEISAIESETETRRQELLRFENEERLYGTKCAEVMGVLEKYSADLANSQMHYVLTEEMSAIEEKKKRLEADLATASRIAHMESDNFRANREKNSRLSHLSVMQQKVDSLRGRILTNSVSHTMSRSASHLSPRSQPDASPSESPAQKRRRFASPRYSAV

Test [2] concerns the target T2, GST-KMP-11 (Trypanosoma brucei) (UniProt P69301).
T2 sequence: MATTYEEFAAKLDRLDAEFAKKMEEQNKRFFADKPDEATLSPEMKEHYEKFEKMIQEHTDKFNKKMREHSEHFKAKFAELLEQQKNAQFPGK
In words: pull-down; purified GST-fusion proteins bound to glutathione Sepharose beads incubated with in vitro translated TbAUK1-HA, washed six times; Western blot with anti-HA mAb; only the target purified.

Test [3] addresses T3, KMP-11-HA (Trypanosoma brucei) (UniProt P69301).
T3 sequence: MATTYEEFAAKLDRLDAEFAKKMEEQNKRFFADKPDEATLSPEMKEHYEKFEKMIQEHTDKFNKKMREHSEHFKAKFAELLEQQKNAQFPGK
The test can be described thus: co-IP; procyclic cell lysate (25 mM Tris-Cl pH 7.6, 100 mM NaCl, 1% Nonidet P-40, 1 mM dithiothreitol) with anti-HA mAb or anti-Tubulin mAb at 4°C, protein G Sepharose; blot with anti-Protein C mAb or anti-HA mAb.

Test [4] concerns the target TbCPC1 (yeast two-hybrid fusion) (Trypanosoma brucei) (UniProt Q586F4). The test can be described thus: two-hybrid; Gal4 system; prey in pGADT7 (AH109), bait in pGBKT7 (Y187), mated, spotted on SD-Leu-Trp and SD-His-Leu-Trp plates (Fig. 2B).
Test [5] has as its target TbCPC2 (yeast two-hybrid fusion) (Trypanosoma brucei) (UniProt Q381V1). The test is described as above.
Test [6] deals with α-tubulin (T. brucei (endogenous in procyclic cells)). In words: co-IP; procyclic cell lysate (25 mM Tris-Cl pH 7.6, 100 mM NaCl, 1% Nonidet P-40, 1 mM dithiothreitol) with anti-HA mAb or anti-Tubulin mAb at 4°C, protein G Sepharose; blot with anti-Protein C mAb or anti-HA mAb.

These are yes or no findings as the source states them, for the method shown. For some of these results: Binding can be weak; no strength is given. For some of these results: In cells and extracts the contact can be indirect. For some of these results: Tags and fused reporters may be left off the sequences shown.

In the case of “TbAUK1 (yeast two-hybrid fusion) (Trypanosoma brucei) (enzyme)”, the binding result in test [1] was “no binding”.
Turning to “TbAUK1-HA (in vitro translated) (Trypanosoma brucei) (enzyme)”, the binding result in test [2] is “no binding”.
Take “TbAUK1-PTP (Trypanosoma brucei) (enzyme)”: the binding result in test [3] is recorded as “no binding”.
For the molecule “TbKIN-B (yeast two-hybrid fusion) (from UniProt Q57ZI5)”, the binding entry in test [4] and in test [5] was “binds” each time.
Consider “TbCPC1 (yeast two-hybrid fusion) (from UniProt Q586F4)”, for which, in test [5], the binding entry is listed as “binds”.

B1: KMP-11-HA (protein, UniProt P69301 1-92)
chain: MATTYEEFAAKLDRLDAEFAKKMEEQNKRFFADKPDEATLSPEMKEHYEKFEKMIQEHTDKFNKKMREHSEHFKAKFAELLEQQKNAQFPGK
With B1, in test [6], the binding entry is “binds”.

These data come from PMC2396291.
